Test results published in the supplement of paper PMC10849652.
This is one part of the list.

Sequences of proteins named here, by UniProt entry; tags and fusion partners are left off. A change or cut given only in a name is not applied to a line headed by its entry.
UniProt O75400: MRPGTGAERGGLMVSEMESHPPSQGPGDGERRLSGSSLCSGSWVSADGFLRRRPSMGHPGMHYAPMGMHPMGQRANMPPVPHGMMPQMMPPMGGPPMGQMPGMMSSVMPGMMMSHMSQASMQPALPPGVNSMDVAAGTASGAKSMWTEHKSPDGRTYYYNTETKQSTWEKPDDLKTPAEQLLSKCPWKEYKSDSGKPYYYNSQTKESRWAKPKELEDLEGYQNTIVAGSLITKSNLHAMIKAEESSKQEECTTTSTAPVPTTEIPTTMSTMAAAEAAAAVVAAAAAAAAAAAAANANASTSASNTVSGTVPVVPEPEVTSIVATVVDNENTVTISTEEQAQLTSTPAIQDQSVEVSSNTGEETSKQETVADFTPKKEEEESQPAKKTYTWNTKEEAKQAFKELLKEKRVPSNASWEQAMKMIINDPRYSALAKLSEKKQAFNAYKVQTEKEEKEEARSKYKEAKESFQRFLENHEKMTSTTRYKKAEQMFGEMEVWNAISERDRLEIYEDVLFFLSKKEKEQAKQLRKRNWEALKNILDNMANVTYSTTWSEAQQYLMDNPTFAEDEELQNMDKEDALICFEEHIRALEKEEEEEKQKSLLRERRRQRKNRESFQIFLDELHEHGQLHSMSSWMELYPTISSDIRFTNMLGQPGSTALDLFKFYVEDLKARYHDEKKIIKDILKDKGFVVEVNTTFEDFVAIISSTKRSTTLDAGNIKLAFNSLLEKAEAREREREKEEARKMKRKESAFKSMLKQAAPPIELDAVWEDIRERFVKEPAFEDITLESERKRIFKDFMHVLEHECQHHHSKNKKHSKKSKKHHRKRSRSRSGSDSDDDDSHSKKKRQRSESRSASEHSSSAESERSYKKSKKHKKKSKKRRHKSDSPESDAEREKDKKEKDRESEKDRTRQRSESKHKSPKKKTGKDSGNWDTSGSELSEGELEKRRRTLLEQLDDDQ
UniProt Q5JSZ5: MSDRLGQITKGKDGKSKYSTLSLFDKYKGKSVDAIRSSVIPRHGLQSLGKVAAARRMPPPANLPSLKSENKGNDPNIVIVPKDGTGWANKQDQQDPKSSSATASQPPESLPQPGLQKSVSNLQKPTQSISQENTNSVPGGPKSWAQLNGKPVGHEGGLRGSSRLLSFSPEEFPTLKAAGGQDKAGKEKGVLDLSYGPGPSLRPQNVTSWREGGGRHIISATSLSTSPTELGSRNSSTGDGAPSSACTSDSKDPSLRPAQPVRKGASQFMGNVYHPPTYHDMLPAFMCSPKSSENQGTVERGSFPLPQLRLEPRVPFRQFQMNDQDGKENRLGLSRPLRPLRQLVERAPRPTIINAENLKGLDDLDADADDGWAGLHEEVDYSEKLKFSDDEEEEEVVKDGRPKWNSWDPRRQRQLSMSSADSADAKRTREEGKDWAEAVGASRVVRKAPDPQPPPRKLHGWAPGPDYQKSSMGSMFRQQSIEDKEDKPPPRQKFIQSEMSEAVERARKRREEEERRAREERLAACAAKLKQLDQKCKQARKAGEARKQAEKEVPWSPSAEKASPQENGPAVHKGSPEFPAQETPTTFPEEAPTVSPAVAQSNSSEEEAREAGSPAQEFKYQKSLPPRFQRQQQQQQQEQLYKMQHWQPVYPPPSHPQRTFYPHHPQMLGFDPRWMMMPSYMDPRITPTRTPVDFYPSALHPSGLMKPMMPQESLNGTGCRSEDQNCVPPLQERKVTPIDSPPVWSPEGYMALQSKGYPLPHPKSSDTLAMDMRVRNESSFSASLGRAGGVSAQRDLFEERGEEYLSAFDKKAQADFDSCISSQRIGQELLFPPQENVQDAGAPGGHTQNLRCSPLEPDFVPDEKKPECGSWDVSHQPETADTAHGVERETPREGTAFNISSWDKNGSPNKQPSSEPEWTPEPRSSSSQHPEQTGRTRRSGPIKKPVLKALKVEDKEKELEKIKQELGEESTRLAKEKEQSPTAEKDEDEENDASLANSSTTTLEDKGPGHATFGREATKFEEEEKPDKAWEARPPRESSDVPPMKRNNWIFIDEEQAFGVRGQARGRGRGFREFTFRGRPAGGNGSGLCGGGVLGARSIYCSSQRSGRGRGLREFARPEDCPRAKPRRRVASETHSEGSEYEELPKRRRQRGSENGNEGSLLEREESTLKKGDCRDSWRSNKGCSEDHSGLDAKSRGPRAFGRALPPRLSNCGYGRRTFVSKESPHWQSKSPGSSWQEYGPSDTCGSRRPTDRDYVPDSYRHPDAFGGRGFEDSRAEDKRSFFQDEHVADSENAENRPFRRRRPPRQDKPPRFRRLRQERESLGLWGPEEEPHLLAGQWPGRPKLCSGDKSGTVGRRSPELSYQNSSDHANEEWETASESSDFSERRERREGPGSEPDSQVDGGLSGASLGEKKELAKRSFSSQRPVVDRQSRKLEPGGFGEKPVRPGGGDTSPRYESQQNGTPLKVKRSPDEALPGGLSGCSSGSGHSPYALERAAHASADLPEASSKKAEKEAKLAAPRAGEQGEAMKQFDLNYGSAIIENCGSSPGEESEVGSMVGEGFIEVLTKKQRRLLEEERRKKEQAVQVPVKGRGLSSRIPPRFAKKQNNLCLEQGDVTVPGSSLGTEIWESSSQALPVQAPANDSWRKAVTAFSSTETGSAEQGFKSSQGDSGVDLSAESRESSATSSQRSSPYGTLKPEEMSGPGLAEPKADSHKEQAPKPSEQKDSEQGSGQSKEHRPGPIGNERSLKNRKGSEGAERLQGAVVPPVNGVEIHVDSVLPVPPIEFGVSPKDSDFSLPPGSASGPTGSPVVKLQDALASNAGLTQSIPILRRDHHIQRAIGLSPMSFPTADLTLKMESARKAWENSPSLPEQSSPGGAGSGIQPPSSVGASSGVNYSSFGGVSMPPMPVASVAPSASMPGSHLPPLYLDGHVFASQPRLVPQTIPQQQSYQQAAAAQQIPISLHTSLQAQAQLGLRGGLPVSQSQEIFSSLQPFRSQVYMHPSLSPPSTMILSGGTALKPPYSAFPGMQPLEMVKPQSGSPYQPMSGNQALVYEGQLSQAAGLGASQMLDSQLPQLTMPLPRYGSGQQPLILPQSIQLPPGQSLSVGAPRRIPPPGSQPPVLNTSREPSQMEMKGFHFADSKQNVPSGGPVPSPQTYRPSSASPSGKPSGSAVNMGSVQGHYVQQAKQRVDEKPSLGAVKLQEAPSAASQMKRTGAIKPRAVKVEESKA
UniProt Q9UGJ0: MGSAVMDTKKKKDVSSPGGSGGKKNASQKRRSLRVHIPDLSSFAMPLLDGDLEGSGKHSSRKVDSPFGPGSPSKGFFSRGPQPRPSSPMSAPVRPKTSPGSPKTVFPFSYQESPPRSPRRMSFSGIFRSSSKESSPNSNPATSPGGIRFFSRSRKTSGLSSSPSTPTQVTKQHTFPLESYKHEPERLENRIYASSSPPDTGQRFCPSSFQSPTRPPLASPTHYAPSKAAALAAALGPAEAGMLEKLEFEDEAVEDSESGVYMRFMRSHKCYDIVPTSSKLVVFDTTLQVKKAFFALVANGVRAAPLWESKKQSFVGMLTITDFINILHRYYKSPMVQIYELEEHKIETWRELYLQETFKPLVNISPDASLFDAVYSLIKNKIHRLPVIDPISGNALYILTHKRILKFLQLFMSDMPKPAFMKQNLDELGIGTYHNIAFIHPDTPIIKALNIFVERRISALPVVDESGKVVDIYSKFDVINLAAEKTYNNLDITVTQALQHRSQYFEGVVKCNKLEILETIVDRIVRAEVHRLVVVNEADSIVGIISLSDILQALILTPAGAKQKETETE
UniProt Q12972: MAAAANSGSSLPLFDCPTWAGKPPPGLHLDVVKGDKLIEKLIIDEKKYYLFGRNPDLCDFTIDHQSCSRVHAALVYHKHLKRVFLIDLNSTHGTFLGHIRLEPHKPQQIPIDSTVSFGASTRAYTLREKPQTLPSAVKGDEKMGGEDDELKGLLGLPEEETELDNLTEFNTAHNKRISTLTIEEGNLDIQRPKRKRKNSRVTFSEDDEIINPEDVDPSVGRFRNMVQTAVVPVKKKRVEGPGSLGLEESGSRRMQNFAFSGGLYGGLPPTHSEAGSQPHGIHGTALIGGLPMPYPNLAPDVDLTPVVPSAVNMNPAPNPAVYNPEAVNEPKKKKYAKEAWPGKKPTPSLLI
UniProt P48147: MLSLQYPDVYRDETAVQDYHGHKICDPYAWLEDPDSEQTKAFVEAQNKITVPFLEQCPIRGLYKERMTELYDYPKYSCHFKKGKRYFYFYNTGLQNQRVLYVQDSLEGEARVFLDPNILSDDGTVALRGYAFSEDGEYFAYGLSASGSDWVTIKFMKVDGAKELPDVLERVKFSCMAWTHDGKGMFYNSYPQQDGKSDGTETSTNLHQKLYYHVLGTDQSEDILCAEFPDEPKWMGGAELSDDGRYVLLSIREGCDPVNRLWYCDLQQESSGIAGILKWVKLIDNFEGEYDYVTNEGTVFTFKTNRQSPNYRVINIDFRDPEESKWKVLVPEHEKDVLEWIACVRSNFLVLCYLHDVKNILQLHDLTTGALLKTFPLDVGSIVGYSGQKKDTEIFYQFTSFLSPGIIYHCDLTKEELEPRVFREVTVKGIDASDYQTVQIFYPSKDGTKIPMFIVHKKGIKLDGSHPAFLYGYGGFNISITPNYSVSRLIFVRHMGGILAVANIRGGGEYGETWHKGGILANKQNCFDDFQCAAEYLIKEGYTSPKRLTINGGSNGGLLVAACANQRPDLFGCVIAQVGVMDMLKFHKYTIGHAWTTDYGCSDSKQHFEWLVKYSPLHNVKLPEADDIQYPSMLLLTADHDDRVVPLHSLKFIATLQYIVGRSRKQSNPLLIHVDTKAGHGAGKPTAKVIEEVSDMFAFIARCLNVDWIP
UniProt O60927: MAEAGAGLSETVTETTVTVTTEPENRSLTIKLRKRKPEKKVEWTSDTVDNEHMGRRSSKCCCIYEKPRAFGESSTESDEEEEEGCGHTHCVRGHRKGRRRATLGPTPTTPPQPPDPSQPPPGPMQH
UniProt P05771, whole entry, looked up: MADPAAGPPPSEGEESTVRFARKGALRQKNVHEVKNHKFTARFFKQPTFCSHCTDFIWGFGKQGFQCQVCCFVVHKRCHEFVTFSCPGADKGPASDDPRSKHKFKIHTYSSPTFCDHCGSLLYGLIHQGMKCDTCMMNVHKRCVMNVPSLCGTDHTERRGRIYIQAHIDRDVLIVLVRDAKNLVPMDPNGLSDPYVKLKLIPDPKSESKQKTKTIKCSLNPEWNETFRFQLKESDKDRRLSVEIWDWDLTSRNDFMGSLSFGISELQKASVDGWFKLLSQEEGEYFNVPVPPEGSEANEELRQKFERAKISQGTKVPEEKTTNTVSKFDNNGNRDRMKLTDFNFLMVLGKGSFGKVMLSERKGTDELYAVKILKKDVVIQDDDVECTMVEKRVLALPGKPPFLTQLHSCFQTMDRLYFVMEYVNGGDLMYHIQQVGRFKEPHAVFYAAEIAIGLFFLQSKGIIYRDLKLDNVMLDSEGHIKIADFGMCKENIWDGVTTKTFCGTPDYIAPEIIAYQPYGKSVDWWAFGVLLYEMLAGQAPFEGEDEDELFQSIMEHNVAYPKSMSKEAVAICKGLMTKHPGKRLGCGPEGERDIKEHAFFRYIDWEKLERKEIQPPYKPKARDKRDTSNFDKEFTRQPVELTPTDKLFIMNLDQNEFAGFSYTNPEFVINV
UniProt P49593: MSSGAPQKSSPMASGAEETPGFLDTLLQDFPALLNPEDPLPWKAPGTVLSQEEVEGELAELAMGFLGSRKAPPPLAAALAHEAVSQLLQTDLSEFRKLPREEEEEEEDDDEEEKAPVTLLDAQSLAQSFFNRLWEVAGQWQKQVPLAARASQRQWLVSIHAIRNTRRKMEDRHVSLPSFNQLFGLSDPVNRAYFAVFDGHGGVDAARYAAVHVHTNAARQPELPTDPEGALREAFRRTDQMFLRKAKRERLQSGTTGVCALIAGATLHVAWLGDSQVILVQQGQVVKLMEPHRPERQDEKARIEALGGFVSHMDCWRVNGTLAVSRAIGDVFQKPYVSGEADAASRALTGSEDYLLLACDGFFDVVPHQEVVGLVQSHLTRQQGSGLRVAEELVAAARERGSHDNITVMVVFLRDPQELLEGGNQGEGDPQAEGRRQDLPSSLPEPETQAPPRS
UniProt Q66LE6: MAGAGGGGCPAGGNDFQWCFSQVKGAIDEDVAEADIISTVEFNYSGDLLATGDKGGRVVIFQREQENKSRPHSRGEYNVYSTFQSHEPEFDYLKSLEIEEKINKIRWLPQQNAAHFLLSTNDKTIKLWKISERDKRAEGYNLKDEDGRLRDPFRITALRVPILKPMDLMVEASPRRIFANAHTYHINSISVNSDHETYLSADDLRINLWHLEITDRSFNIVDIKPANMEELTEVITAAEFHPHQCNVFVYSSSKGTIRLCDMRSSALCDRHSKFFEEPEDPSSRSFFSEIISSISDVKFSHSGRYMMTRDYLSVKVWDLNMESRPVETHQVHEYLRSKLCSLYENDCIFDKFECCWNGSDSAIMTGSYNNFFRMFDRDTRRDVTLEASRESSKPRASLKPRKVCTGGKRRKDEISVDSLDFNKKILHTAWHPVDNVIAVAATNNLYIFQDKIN

Legend:
Assay in all cases: log2 fold change, soluble protein after heating vs DMSO (PISA); higher = thermal stabilisation; K562 cells, 10 uM, 30 min; active = over 0.2 and 3.5 SD of the protein, either way, in both replicates (recomputed)
[1] = compound: CC1=C(C=C(C=C1)NC(=O)C2=CC(=CC=C2)C(C)(C)C#N)NC3=CC4=C(C=C3)N=CN(C4=O)C
Method in brief: (§1)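 Values are thermal stability changes relative to control samples and are taken from duplicates. They are stated as log2 fold changes. Before quantification by TMTpro 16plex LC-MS/MS with equalised channel sums, K562 cells at 2×10^6 cells/mL were treated with 10 μM compound for 30 min, heated in aliquots for 3 min across 48°C-58°C, pooled, extracted in PBS with 0.5% NP-40 at 4°C, and centrifuged at 21,000xg for 90 min to give the soluble supernatant.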

[2] = compound: CC1=C(C=C(C=C1)NC(=O)C2=CC(=CC=C2)N(C)C)NC(=O)C3=CC=C(C=C3)O
Method in brief: as §1

[3] = compound: CC1=CC=C(C=C1)SC2=C3C=C(SC3=CN=C2)C(=O)N
Method in brief: as §1

[4] = compound: CC1=NC(=CC=C1)C2=C(N=C(N2)C(C)(C)C)C3=CC4=NC=CN=C4C=C3
Method in brief: as §1

Nexturastat A = compound: CCCCN(Cc1ccc(C(=O)NO)cc1)C(=O)Nc1ccccc1 [Nexturastat A]
Method in brief: as §1

vemurafenib = compound: CCCS(=O)(=O)Nc1ccc(F)c(C(=O)c2c[nH]c3ncc(-c4ccc(Cl)cc4)cc23)c1F [vemurafenib]
Method in brief: as §1

[5] = compound: CCCS(=O)(=O)Nc1ccc(F)c(C(=O)c2c[nH]c3ncc(Cl)cc23)c1F
Method in brief: as §1

[6] = compound: CCCc1cc(C)[nH]c(=O)c1CNC(=O)c1cc(-c2ccnc(N3CCN(C)CC3)c2)cc2c1cnn2C(C)C
Method in brief: as §1

givinostat = compound: CCN(CC)Cc1ccc2cc(COC(=O)Nc3ccc(C(=O)NO)cc3)ccc2c1 [givinostat]
Method in brief: as §1

barasertib = compound: CCN(CCCOc1ccc2c(Nc3cc(CC(=O)Nc4cccc(F)c4)[nH]n3)ncnc2c1)CCOP(=O)(O)O [barasertib]
Method in brief: as §1

Measured: log2 fold change

PRPF40A (UniProt O75400)
inactive: [1] 0.016 | [2] 0 | [3] 0.022 | [4] 0.018 | Nexturastat A -0.051 | vemurafenib 0.109 | [5] 0.02 | [6] 0.073 | givinostat 0.156 | barasertib 0

PRKAR2A (UniProt P13861)
inactive: [1] 0.141 | [2] 0.001 | [3] 0.011 | [4] -0.033 | Nexturastat A 0.008 | vemurafenib -0.021 | [5] -0.021 | [6] 0.019 | givinostat 0.024 | barasertib -0.001

PRRC2B (UniProt Q5JSZ5)
inactive: [1] -0.024 | [2] 0.053 | [3] -0.04 | [4] -0.004 | Nexturastat A 0.011 | vemurafenib -0.029 | [5] -0.016 | [6] -0.016 | givinostat 0.013 | barasertib -0.004

PRKAR1A (UniProt P10644)
inactive: [1] 0.15 | [2] -0.051 | [3] 0.059 | [4] -0.103 | Nexturastat A 0.053 | vemurafenib -0.028 | [5] -0.085 | [6] 0.203 | givinostat 0.055 | barasertib -0.01

PPP1R10 (UniProt Q96QC0)
inactive: [1] -0.069 | [2] 0.043 | [3] -0.094 | [4] -0.119 | Nexturastat A 0.341 | vemurafenib -0.08 | [5] -0.049 | [6] 0.112 | givinostat 0.091 | barasertib -0.082

PRPF31 (UniProt Q8WWY3)
inactive: [1] 0.021 | [2] -0.12 | [3] 0 | [4] 0.067 | Nexturastat A -0.01 | vemurafenib -0.017 | [5] 0.087 | [6] 0.106 | givinostat 0.065 | barasertib 0.096

PPWD1 (UniProt Q96BP3)
inactive: [1] 0.015 | [2] -0.027 | [3] -0.025 | [4] 0.007 | Nexturastat A -0.023 | vemurafenib -0.001 | [5] -0.002 | [6] 0.006 | givinostat 0.008 | barasertib 0.02

PRKAG2 (UniProt Q9UGJ0)
inactive: [1] 0.033 | [2] -0.02 | [3] 0.021 | [4] 0.051 | Nexturastat A -0.075 | vemurafenib -0.042 | [5] -0.021 | [6] 0.011 | givinostat 0.009 | barasertib 0.022

PRPSAP1 isoform 2 (UniProt Q14558)
inactive: [1] 0.026 | [2] 0.007 | [3] -0.039 | [4] 0.01 | Nexturastat A 0.021 | vemurafenib -0.048 | [5] -0.008 | [6] 0.041 | givinostat -0.016 | barasertib 0.009

PRPSAP2 (UniProt O60256)
inactive: [1] -0.141 | [2] -0.002 | [3] -0.021 | [4] -0.07 | Nexturastat A -0.083 | vemurafenib -0.022 | [5] -0.019 | [6] -0.026 | givinostat -0.034 | barasertib -0.005

PPM1E (UniProt Q8WY54)
inactive: [1] 0.039 | [2] -0.006 | [3] -0.006 | [4] -0.104 | Nexturastat A 0.075 | vemurafenib 0.014 | [5] -0.006 | [6] -0.047 | givinostat -0.014 | barasertib 0.017

PPP2R1A (UniProt P30153)
inactive: [1] 0.011 | [2] 0.018 | [3] 0.014 | [4] 0.035 | Nexturastat A -0.104 | vemurafenib 0.031 | [5] -0.009 | [6] -0.038 | givinostat -0.037 | barasertib 0.025

PPP2R1B isoform 2 (UniProt P30154)
inactive: [1] 0.093 | [2] -0.004 | [3] -0.025 | [4] 0.096 | Nexturastat A -0.049 | vemurafenib 0.062 | [5] 0.042 | [6] 0.033 | givinostat 0.01 | barasertib 0.043

PPP1R7 (UniProt Q15435)
inactive: [1] 0.003 | [2] 0.014 | [3] 0.04 | [4] 0.035 | Nexturastat A -0.076 | vemurafenib -0.051 | [5] 0.034 | [6] -0.021 | givinostat -0.017 | barasertib 0.053

PPP1R8 (UniProt Q12972)
inactive: [1] 0.011 | [2] -0.052 | [3] 0.013 | [4] 0.079 | Nexturastat A -0.06 | vemurafenib 0.061 | [5] 0.055 | [6] -0.072 | givinostat -0.009 | barasertib 0

PREP (UniProt P48147)
inactive: [1] -0.001 | [2] -0.021 | [3] 0.008 | [4] -0.019 | Nexturastat A 0.053 | vemurafenib 0.037 | [5] 0.021 | [6] 0.057 | givinostat 0.062 | barasertib 0.027

Eight neighbouring entries from above, for reference:
PPWD1 (UniProt Q96BP3)
inactive: [1] 0.015 | [2] -0.027 | [3] -0.025 | [4] 0.007 | Nexturastat A -0.023 | vemurafenib -0.001 | [5] -0.002 | [6] 0.006 | givinostat 0.008 | barasertib 0.02

PRKAG2 (UniProt Q9UGJ0)
inactive: [1] 0.033 | [2] -0.02 | [3] 0.021 | [4] 0.051 | Nexturastat A -0.075 | vemurafenib -0.042 | [5] -0.021 | [6] 0.011 | givinostat 0.009 | barasertib 0.022

PRPSAP1 isoform 2 (UniProt Q14558)
inactive: [1] 0.026 | [2] 0.007 | [3] -0.039 | [4] 0.01 | Nexturastat A 0.021 | vemurafenib -0.048 | [5] -0.008 | [6] 0.041 | givinostat -0.016 | barasertib 0.009

PRPSAP2 (UniProt O60256)
inactive: [1] -0.141 | [2] -0.002 | [3] -0.021 | [4] -0.07 | Nexturastat A -0.083 | vemurafenib -0.022 | [5] -0.019 | [6] -0.026 | givinostat -0.034 | barasertib -0.005

PPM1E (UniProt Q8WY54)
inactive: [1] 0.039 | [2] -0.006 | [3] -0.006 | [4] -0.104 | Nexturastat A 0.075 | vemurafenib 0.014 | [5] -0.006 | [6] -0.047 | givinostat -0.014 | barasertib 0.017

PPP2R1A (UniProt P30153)
inactive: [1] 0.011 | [2] 0.018 | [3] 0.014 | [4] 0.035 | Nexturastat A -0.104 | vemurafenib 0.031 | [5] -0.009 | [6] -0.038 | givinostat -0.037 | barasertib 0.025

PPP2R1B isoform 2 (UniProt P30154)
inactive: [1] 0.093 | [2] -0.004 | [3] -0.025 | [4] 0.096 | Nexturastat A -0.049 | vemurafenib 0.062 | [5] 0.042 | [6] 0.033 | givinostat 0.01 | barasertib 0.043

PPP1R7 (UniProt Q15435)
inactive: [1] 0.003 | [2] 0.014 | [3] 0.04 | [4] 0.035 | Nexturastat A -0.076 | vemurafenib -0.051 | [5] 0.034 | [6] -0.021 | givinostat -0.017 | barasertib 0.053

Additional entries.

PRPF38A (UniProt Q8NAV1)
inactive: [1] 0.005 | [2] -0.023 | [3] -0.058 | [4] 0.017 | Nexturastat A 0.019 | vemurafenib -0.118 | [5] -0.089 | [6] 0.065 | givinostat 0.005 | barasertib -0.024

PPP1R11 (UniProt O60927)
inactive: [1] -0.044 | [2] 0.036 | [3] -0.108 | [4] -0.001 | Nexturastat A -0.01 | vemurafenib -0.109 | [5] -0.026 | [6] 0.013 | givinostat -0.106 | barasertib 0.009

PPP2R5C isoform 5 (UniProt Q13362)
inactive: [1] 0.001 | [2] -0.045 | [3] 0.012 | [4] 0.052 | Nexturastat A -0.171 | vemurafenib 0.066 | [5] 0.038 | [6] 0.032 | givinostat 0.059 | barasertib 0.018

PRKAA1 isoform 2 (UniProt Q13131)
inactive: [1] -0.029 | [2] 0.001 | [3] -0.001 | [4] 0.02 | Nexturastat A -0.042 | vemurafenib 0.025 | [5] 0.008 | [6] 0.021 | givinostat -0.014 | barasertib 0.016

PRKCB isoform 2 (UniProt P05771)
inactive: [1] 0.005 | [2] -0.014 | [3] -0.003 | [4] 0.01 | Nexturastat A -0.01 | vemurafenib 0.009 | [5] -0.007 | [6] 0.002 | givinostat 0.001 | barasertib 0.015

PRPF4B (UniProt Q13523)
inactive: [1] -0.024 | [2] 0.018 | [3] -0.079 | [4] -0.082 | Nexturastat A 0.158 | vemurafenib 0.052 | [5] 0.03 | [6] -0.098 | givinostat 0.082 | barasertib -0.05

PPM1F (UniProt P49593)
inactive: [1] 0.023 | [2] -0.033 | [3] -0.036 | [4] 0 | Nexturastat A -0.07 | vemurafenib 0.025 | [5] -0.023 | [6] 0.027 | givinostat 0.011 | barasertib 0.06

PRPF38B (UniProt Q5VTL8)
inactive: [1] -0.001 | [2] 0.001 | [3] -0.012 | [4] 0.015 | Nexturastat A -0.011 | vemurafenib 0.043 | [5] 0.042 | [6] -0.006 | givinostat 0.007 | barasertib 0.012

PPP2R2D (UniProt Q66LE6)
inactive: [1] -0.002 | [2] 0.009 | [3] -0.274 | [4] 0.034 | Nexturastat A -0.079 | vemurafenib -0.093 | [5] 0.228 | [6] -0.009 | givinostat -0.014 | barasertib 0.019

PPP2R2A isoform 2 (UniProt P63151)
inactive: [1] -0.005 | [2] 0.004 | [3] 0.002 | [4] 0.013 | Nexturastat A -0.008 | vemurafenib 0.001 | [5] 0.043 | [6] -0.008 | givinostat 0.021 | barasertib -0.017

PRDX4 (UniProt Q13162)
inactive: [1] 0.014 | [2] -0.024 | [3] -0.021 | [4] -0.013 | Nexturastat A -0.082 | vemurafenib -0.008 | [5] -0.018 | [6] -0.143 | givinostat -0.031 | barasertib 0.024
